# Data reported in patent US4687760 (dated 1987).
# Assay: general procedure: solution-phase peptide synthesis; Boc-Trp-OSu active ester with DIEA
# Settings: late stage modification step
substance,measurement,value
PEPTIDE1{[Boc].W.[NlePsiCH2NHAsp].F.[am]}$$$$V2.0,step yield,97%

# Strings that start with PEPTIDE1 are HELM notation: dots part the residues, brackets hold end groups and non-standard residues.
